In patent publication US20190211057A1:
Residue numbers refer to the chain shown, from its start. No constants are given. Whether binding was seen depends on the method and setting. Some binding calls cover weakened binding; strength is not graded here. Blank lines part the entries; values can stand above or below the binder they belong to.

Chains of the proteins cited; added tags and fusions are not shown. Lines headed by an entry give the natural chain unless they say otherwise; changes in a name come on top.
UniProt P06756: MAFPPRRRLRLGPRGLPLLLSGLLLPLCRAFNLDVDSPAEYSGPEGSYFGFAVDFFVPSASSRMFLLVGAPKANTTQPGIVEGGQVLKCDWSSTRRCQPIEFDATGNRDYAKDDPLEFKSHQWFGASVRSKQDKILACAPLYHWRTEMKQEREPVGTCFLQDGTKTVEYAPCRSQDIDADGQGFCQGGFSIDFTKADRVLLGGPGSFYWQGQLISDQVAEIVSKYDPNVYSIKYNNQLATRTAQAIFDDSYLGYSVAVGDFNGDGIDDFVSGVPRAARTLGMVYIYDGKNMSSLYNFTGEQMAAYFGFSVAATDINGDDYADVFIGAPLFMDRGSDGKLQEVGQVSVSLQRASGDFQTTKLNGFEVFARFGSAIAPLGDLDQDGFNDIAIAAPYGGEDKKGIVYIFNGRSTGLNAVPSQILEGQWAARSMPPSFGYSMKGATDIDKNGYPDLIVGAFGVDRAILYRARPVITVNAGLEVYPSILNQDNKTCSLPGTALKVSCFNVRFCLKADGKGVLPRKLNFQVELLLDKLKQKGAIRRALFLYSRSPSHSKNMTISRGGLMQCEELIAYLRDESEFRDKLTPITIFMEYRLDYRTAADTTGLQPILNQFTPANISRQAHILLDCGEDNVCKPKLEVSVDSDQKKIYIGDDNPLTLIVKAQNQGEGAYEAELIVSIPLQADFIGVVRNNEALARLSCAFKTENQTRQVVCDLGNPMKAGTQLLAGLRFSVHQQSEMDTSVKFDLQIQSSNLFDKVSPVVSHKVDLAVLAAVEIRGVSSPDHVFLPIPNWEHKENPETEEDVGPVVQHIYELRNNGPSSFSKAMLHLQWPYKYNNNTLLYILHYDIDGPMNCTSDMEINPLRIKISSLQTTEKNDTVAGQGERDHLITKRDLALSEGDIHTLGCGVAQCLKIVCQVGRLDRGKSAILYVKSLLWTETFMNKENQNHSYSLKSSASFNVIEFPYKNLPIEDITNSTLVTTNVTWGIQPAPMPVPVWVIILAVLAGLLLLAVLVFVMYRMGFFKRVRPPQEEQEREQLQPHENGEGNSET

Molecular target: integrin αvβ3 receptor (UniProt P06756)
Assay: ELISA on αvβ3 integrin

binding: binds
B1: RGD4C-EcCD_WT (protein)
chain: MGCDCRGDCFCMSNNALQTIINARLPGEEGLWQIHLQDGKISAIDAQSGVMPITENSLDAEQGLVIPPFVEPHIHLDTTQTAGQPNWNQSGTLFEGIERWAERKALLTHDDVKQRAWQTLKWQIANGIQHVRTHVDVSDATLTALKAMLEVKQEVAPWIDLQIVAFPQEGILSYPNGEALLEEALRLRADVVGAIPHFEFTREYGVESLHKTFALAQKYDRLIDVHCDEIDDEQSRFVETVAALAHHEGMGARVTASHTTAMHSYNGAYTSRLFRLLKMSGINFVANPLVNIHLQGRFDTYPKRRGITRVKEMLESGINVCFGHDDVFDPWYPLGTANMLQVLHMGLHVCQLMGYGQINDGLNLITHHSARTLNLQDYGIAAGNSANLIILPAENGFDALRRQVPVRYSVRGGKVIASTQPAQTTVYLEQPEAIDYKRLEHHHHHH

binding: binds
B2: RGD4C-EcCD_D314A (protein)
chain: B1 chain with D326A
